# Assay results published in paper PMC7674640.
# Sequences of proteins named here, by UniProt entry; tags and fusion partners are left off. Residues count along the entry.
# UniProt Q9SI75, residues 81-783: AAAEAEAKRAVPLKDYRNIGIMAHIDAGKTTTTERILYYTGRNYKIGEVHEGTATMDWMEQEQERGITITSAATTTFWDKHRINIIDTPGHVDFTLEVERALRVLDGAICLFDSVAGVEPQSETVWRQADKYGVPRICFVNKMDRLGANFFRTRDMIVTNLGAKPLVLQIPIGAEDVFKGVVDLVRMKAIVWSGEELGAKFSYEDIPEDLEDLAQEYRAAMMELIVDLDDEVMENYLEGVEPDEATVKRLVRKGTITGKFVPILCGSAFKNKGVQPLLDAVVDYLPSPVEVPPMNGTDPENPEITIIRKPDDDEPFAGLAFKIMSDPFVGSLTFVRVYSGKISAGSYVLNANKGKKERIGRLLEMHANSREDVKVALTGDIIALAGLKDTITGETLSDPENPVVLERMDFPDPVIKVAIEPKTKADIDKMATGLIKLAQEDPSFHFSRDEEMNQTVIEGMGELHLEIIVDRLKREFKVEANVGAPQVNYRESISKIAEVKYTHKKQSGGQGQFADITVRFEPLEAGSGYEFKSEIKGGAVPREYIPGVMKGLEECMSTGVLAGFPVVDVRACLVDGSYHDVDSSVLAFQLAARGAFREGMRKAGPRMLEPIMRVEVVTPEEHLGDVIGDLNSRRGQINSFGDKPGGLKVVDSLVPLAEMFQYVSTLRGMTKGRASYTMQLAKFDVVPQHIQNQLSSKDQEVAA
# B1: PORC (At1g03630) (enzyme, UniProt O48741 68-401)
# chain: QTVTATPPANEASPEQKKTERKGTAVITGASSGLGLATAKALADTGKWHVIMACRNFLKAEKAARSVGMSKEDYTVMHLDLASLESVKQFVENFRRTEQPLDVLVCNAAVYQPTAKEPSFTAEGFEISVGTNHLGHFLLSRLLLDDLKKSDYPSKRMIIVGSITGNTNTLAGNVPPKANLGDLRGLASGLNGQNSSMIDGGEFDGAKAYKDSKVCNMLTMQELHRRYHEETGVTFASLYPGCIATTGLFREHIPLFRLLFPPFQKYITKGYVSEEEAGKRLAQVVSDPSLGKSGVYWSWNNNSSSFENQLSKEASDAEKAKKLWEVSEKLVGLA
# B2: CHLI1 (magnesium chelatase subunit) (protein, UniProt P16127 61-424)
# chain: VMNVATEINSTEQVVGKFDSKKSARPVYPFAAIVGQDEMKLCLLLNVIDPKIGGVMIMGDRGTGKSTTVRSLVDLLPEINVVAGDPYNSDPIDPEFMGVEVRERVEKGEQVPVIATKINMVDLPLGATEDRVCGTIDIEKALTEGVKAFEPGLLAKANRGILYVDEVNLLDDHLVDVLLDSAASGWNTVEREGISISHPARFILIGSGNPEEGELRPQLLDRFGMHAQVGTVRDADLRVKIVEERARFDSNPKDFRDTYKTEQDKLQDQISTARANLSSVQIDRELKVKISRVCSELNVDGLRGDIVTNRAAKALAALKGKDRVTPDDVATVIPNCLRHRLRKDPLESIDSGVLVSEKFAEIFS
# B3: Rubisco activase (protein, UniProt P10896 59-474)
# chain: AVKEDKQTDGDRWRGLAYDTSDDQQDITRGKGMVDSVFQAPMGTGTHHAVLSSYEYVSQGLRQYNLDNMMDGFYIAPAFMDKLVVHITKNFLTLPNIKVPLILGIWGGKGQGKSFQCELVMAKMGINPIMMSAGELESGNAGEPAKLIRQRYREAADLIKKGKMCCLFINDLDAGAGRMGGTTQYTVNNQMVNATLMNIADNPTNVQLPGMYNKEENARVPIICTGNDFSTLYAPLIRDGRMEKFYWAPTREDRIGVCKGIFRTDKIKDEDIVTLVDQFPGQSIDFFGALRARVYDDEVRKFVESLGVEKIGKRLVNSREGPPVFEQPEMTYEKLMEYGNMLVMEQENVKRVQLAETYLSQAALGDANADAIGRGTFYGKGAQQVNLPVPEGCTDPVAENFDPTARSDDGTCVYNF
# B4: GUN5 (magnesium chelatase subunit) (protein, UniProt Q9FNB0 50-1381)
# chain: AVSGNGLFTQTNPEVRRIVPIKRDNVPTVKIVYVVLEAQYQSSLSEAVQSLNKTSRFASYEVVGYLVEELRDKNTYNNFCEDLKDANIFIGSLIFVEELAIKVKDAVEKERDRMDAVLVFPSMPEVMRLNKLGSFSMSQLGQSKSPFFQLFKRKKQGSAGFADSMLKLVRTLPKVLKYLPSDKAQDARLYILSLQFWLGGSPDNLQNFVKMISGSYVPALKGVKIEYSDPVLFLDTGIWHPLAPTMYDDVKEYWNWYDTRRDTNDSLKRKDATVVGLVLQRSHIVTGDDSHYVAVIMELEARGAKVVPIFAGGLDFSGPVEKYFVDPVSKQPIVNSAVSLTGFALVGGPARQDHPRAIEALKKLDVPYLVAVPLVFQTTEEWLNSTLGLHPIQVALQVALPELDGAMEPIVFAGRDPRTGKSHALHKRVEQLCIRAIRWGELKRKTKAEKKLAITVFSFPPDKGNVGTAAYLNVFASIFSVLRDLKRDGYNVEGLPENAETLIEEIIHDKEAQFSSPNLNVAYKMGVREYQDLTPYANALEENWGKPPGNLNSDGENLLVYGKAYGNVFIGVQPTFGYEGDPMRLLFSKSASPHHGFAAYYSYVEKIFKADAVLHFGTHGSLEFMPGKQVGMSDACFPDSLIGNIPNVYYYAANNPSEATIAKRRSYANTISYLTPPAENAGLYKGLKQLSELISSYQSLKDTGRGPQIVSSIISTAKQCNLDKDVDLPDEGLELSPKDRDSVVGKVYSKIMEIESRLLPCGLHVIGEPPSAMEAVATLVNIAALDRPEDEISALPSILAECVGREIEDVYRGSDKGILSDVELLKEITDASRGAVSAFVEKTTNSKGQVVDVSDKLTSLLGFGINEPWVEYLSNTKFYRANRDKLRTVFGFLGECLKLVVMDNELGSLMQALEGKYVEPGPGGDPIRNPKVLPTGKNIHALDPQAIPTTAAMASAKIVVERLVERQKLENEGKYPETIALVLWGTDNIKTYGESLGQVLWMIGVRPIADTFGRVNRVEPVSLEELGRPRIDVVVNCSGVFRDLFINQMNLLDRAIKMVAELDEPVEQNFVRKHALEQAEALGIDIREAATRVFSNASGSYSANISLAVENSSWNDEKQLQDMYLSRKSFAFDSDAPGAGMAEKKQVFEMALSTAEVTFQNLDSSEISLTDVSHYFDSDPTNLVQSLRKDKKKPSSYIADTTTANAQVRTLSETVRLDARTKLLNPKWYEGMMSSGYEGVREIEKRLSNTVGWSATSGQVDNWVYEEANSTFIQDEEMLNRLMNTNPNSFRKMLQTFLEANGRGYWDTSAENIEKLKELYSQVEDKIEGIDR
# B5: DEAD box RNA helicase (RH3) (enzyme, UniProt Q8L7S8 61-748)
# chain: AVATPNSVLSEEAFKSLGLSDHDEYDLDGDNNNVEADDGEELAISKLSLPQRLEESLEKRGITHLFPIQRAVLVPALQGRDIIARAKTGTGKTLAFGIPIIKRLTEEAGDYTAFRRSGRLPKFLVLAPTRELAKQVEKEIKESAPYLSTVCVYGGVSYTIQQSALTRGVDVVVGTPGRIIDLIEGRSLKLGEVEYLVLDEADQMLAVGFEEAVESILENLPTKRQSMLFSATMPTWVKKLARKYLDNPLNIDLVGDQDEKLAEGIKLYAIATTSTSKRTILSDLITVYAKGGKTIVFTQTKRDADEVSLALSNSIATEALHGDISQHQRERTLNAFRQGKFTVLVATDVASRGLDIPNVDLVIHYELPNDPETFVHRSGRTGRAGKEGSAILMHTSSQKRTVRSLERDVGCHFEFISPPTVGDLLESSADQVVATLNGVHPDSIKFFSATAQKLYEEKGTDALAAALAHLSGFSQPPSSRSLLSHEKGWVTLQLIRDPTNARGFLSARSVTGFLSDLYRTAADEVGKIFLIADDRIQGAVFDLPEEIAKELLEKDVPEGNSLSMITKLPPLQDDGPSSDNYGRFSSRDRMPRGGGGSRGSRGGRGGSSRGRDSWGGDDDRGSRRSSGGGSSWSRGGSSSRGSSDDWLIGGRSSSSSRAPSRERSFGGSCFICGKSGHRATDCPDKRGF
# B6: PORB (enzyme, UniProt P21218 67-401)
# chain: QTAATSSPTVTKSVDGKKTLRKGNVVVTGASSGLGLATAKALAETGKWNVIMACRDFLKAERAAKSVGMPKDSYTVMHLDLASLDSVRQFVDNFRRTETPLDVLVCNAAVYFPTAKEPTYSAEGFELSVATNHLGHFLLARLLLDDLKKSDYPSKRLIIVGSITGNTNTLAGNVPPKANLGDLRGLAGGLNGLNSSAMIDGGDFDGAKAYKDSKVCNMLTMQEFHRRFHEETGVTFASLYPGCIASTGLFREHIPLFRALFPPFQKYITKGYVSETESGKRLAQVVSDPSLTKSGVYWSWNNASASFENQLSEEASDVEKARKVWEISEKLVGLA
# B7: CP29A (protein, UniProt Q43349 66-342)
# chain: NVAVSSDFEVEEDDMFADGDDSAPVERNSFSPDLKLFVGNLSFNVDSAQLAQLFESAGNVEMVEVIYDKVTGRSRGFGFVTMSTAAEVEAAAQQFNGYEFEGRPLRVNAGPPPPKREESFSRGPRSGGYGSERGGGYGSERGGGYGSERGGGYGSERGGGYGSQRSGGGYGGSQRSSYGSGSGSGSGSGSGNRLYVGNLSWGVDDMALENLFNEQGKVVEARVIYDRDSGRSKGFGFVTLSSSQEVQKAINSLNGADLDGRQIRVSEAEARPPRGQF
# B8: CHLI2 (At5g45930) (protein, UniProt Q5XF33 56-418)
# chain: VMNVATEINSVEQAKKIDSKESARPVYPFAAIVGQDEMKLCLLLNVIDPKIGGVMIMGDRGTGKSTTVRSLVDLLPEITVVSGDPYNSDPRDPECMGKEVREKVQKGEELSVIETKINMVDLPLGATEDRVCGTIDIEKALTEGVKAFEPGLLAKANRGILYVDEVNLLDDHLVDVLLDSAASGWNTVEREGISISHPARFILIGSGNPEEGELRPQLLDRFGMHAQVGTVRDAELRVKIVEERARFDSNPKEFRETYQEEQLKLQEQITTARSNLSAVQIDQDLKVKISKVCAELDVDGLRGDMVINRAARALAALQGRDQVTAEDVGIVIPNCLRHRLRKDPLESMDSGILVTEKFYEVFT
# B9: GUN4 (protein, UniProt Q9LX31 70-265)
# chain: ASATTAETATIFDVLENHLVNQNFRQADEETRRLLIQISGEAAVKRGYVFFSEVKTISPEDLQAIDNLWIKHSDGRFGYSVQRKIWLKVKKDFTRFFVKVEWMKLLDTEVVQYNYRAFPDEFKWELNDETPLGHLPLTNALRGTQLLKCVLSHPAFATADDNSGETEDELNRGVAVAKEQAGVGADKRVFKTNYSF
# B10: heat shock protein 90-5 (protein, UniProt Q9SIF2 61-780)
# chain: CDAAVAEKETTEEGSGEKFEYQAEVSRLLDLIVHSLYSHKEVFLRELVSNASDALDKLRFLSVTEPSLLGDGGDLEIRIKPDPDNGTITITDTGIGMTKEELIDCLGTIAQSGTSKFLKALKENKDLGADNGLIGQFGVGFYSAFLVAEKVVVSTKSPKSDKQYVWESVADSSSYLIREETDPDNILRRGTQITLYLREDDKYEFAESTRIKNLVKNYSQFVGFPIYTWQEKSRTIEVEEDEPVKEGEEGEPKKKKTTKTEKYWDWELANETKPLWMRNSKEVEKGEYNEFYKKAFNEFLDPLAHTHFTTEGEVEFRSILYIPGMGPLNNEDVTNPKTKNIRLYVKRVFISDDFDGELFPRYLSFVKGVVDSDDLPLNVSREILQESRIVRIMRKRLIRKTFDMIQEISESENKEDYKKFWENFGRFLKLGCIEDTGNHKRITPLLRFFSSKNEEELTSLDDYIENMGENQKAIYYLATDSLKSAKSAPFLEKLIQKDIEVLYLVEPIDEVAIQNLQTYKEKKFVDISKEDLELGDEDEVKDREAKQEFNLLCDWIKQQLGDKVAKVQVSNRLSSSPCVLVSGKFGWSANMERLMKAQALGDTSSLEFMRGRRILEINPDHPIIKDLNAACKNAPESTEATRVVDLLYDTAIISSGFTPDSPAELGNKIYEMMAMAVGGRWGRVEEEEESSTVNEGDDKSGETEVVEPSEVRAESDPWQD
# B11: FNR2 (At1g20020) (enzyme, UniProt Q8W493 58-369)
# chain: ITTETDTPTPAKKVEKVSKKNEEGVIVNRYRPKEPYTGKCLLNTKITADDAPGETWHMVFSHQGEIPYREGQSVGVIADGIDKNGKPHKVRLYSIASSALGDLGNSETVSLCVKRLVYTNDQGETVKGVCSNFLCDLAPGSDVKLTGPVGKEMLMPKDPNATVIMLATGTGIAPFRSFLWKMFFEKHDDYKFNGLAWLFLGVPTTSSLLYQEEFDKMKAKAPENFRVDYAISREQANDKGEKMYIQTRMAQYAAELWELLKKDNTFVYMCGLKGMEKGIDDIMVSLAANDGIDWFDYKKQLKKAEQWNVEVY
# B12: RIP1 (MORF 8) (protein, UniProt Q9LKA5 57-395)
# chain: GGLVSVKGLSTQATSSSLNDPNPNWSNRPPKETILLDGCDFEHWLVVVEPPQGEPTRDEIIDSYIKTLAQIVGSEDEARMKIYSVSTRCYYAFGALVSEDLSHKLKELSNVRWVLPDSYLDVRNKDYGGEPFIDGKAVPYDPKYHEEWIRNNARANERNRRNDRPRNNDRSRNFERRRENMAGGPPPQRPPMGGPPPPPHIGGSAPPPPHMGGSAPPPPHMGQNYGPPPPNNMGGPRHPPPYGAPPQNNMGGPRPPQNYGGTPPPNYGGAPPANNMGGAPPPNYGGGPPPQYGAVPPPQYGGAPPQNNNYQQQGSGMQQPQYQNNYPPNRDGSGNPYQG
# Target: SCO1-GFP (snowy cotyledon 1 fused to GFP) (Arabidopsis thaliana) (UniProt Q9SI75)
# Assay: affinity purification with mass spectrometry; plastidial stress granules (cpSG) from heat/dark-treated (42°C, 30 min) 35S:SCO1-GFP seedlings enriched by differential centrifugation, then purified with anti-GFP rabbit IgG and protein A Dynabeads; lysis buffer 50 mM Tris-HCl pH 7.4, 100 mM potassium acetate, 2 mM magnesium acetate, 0.5% NP-40; hits absent from or enriched (fold change > 2, p < 0.05) against isolates of control seedlings
row,binding,Binder
1,binds,B1
2,binds,B2
3,binds,B3
4,binds,B4
5,binds,B5
6,binds,B6
7,binds,B7
8,binds,B8
9,binds,B9
10,binds,B10
11,binds,B11
12,binds,B12

# Results are given in words; binding and its absence hold for the method and conditions named. Binding seen in cells or lysates may run through a third protein. These calls come from enrichment with a bait or labelling near it, and not all partners need be listed.
